Reference: publication PMC10632368
These are yes or no findings as the source states them, for the method shown. In cells and extracts the contact can be indirect. Some binding calls cover weakened binding; strength is not graded here.

The chains behind the UniProt entries cited, without tags or fusion partners. Residues count along the entry.
UniProt Q5TEJ8: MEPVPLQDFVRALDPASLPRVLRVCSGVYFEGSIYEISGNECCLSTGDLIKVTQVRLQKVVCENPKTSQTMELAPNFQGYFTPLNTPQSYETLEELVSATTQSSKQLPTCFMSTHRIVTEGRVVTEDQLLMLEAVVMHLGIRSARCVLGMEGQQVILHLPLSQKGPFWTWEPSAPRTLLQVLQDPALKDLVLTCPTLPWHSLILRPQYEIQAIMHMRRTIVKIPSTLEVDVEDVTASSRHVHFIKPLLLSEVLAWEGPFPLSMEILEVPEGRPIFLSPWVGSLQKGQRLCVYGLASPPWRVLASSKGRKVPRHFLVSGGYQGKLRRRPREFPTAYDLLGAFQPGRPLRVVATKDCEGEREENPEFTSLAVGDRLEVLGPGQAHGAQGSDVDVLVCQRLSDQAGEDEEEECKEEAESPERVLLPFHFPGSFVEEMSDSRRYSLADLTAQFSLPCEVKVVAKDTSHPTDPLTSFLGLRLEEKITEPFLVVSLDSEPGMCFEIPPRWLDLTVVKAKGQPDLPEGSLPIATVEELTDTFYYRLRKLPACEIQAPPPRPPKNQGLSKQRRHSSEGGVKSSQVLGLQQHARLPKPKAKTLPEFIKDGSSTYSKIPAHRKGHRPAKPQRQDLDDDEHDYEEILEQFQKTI
UniProt O43914, residues 22-113: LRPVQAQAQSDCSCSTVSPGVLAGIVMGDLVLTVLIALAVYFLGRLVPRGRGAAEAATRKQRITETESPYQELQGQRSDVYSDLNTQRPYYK
UniProt P43403: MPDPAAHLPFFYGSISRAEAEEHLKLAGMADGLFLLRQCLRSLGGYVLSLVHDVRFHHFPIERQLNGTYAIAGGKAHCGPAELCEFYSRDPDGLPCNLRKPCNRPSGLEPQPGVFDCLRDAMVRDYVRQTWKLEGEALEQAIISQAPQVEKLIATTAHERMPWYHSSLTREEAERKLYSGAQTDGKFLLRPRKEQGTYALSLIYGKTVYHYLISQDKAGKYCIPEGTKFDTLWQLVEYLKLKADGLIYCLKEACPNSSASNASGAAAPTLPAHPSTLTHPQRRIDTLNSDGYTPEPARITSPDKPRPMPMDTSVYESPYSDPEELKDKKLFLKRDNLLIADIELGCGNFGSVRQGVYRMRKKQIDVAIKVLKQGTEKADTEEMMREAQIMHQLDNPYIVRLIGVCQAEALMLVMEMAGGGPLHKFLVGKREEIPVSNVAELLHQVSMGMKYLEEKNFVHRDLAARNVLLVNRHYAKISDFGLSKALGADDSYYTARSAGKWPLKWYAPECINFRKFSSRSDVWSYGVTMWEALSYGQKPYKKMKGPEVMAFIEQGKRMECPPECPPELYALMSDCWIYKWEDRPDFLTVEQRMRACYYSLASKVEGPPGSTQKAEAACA

Legend:
[1] = biological target: FLAG-tagged THEMIS2 (human) (UniProt Q5TEJ8); assay: co-IP; NKL-Ly49H cells expressing THEMIS2-FLAG stimulated with anti-Ly49H mAb for 2 or 5 min; cytosolic proteins without DTSSP; anti-FLAG M2 affinity gel; immunoblot with anti-DAP12 or anti-ZAP70
[2] = biological target: FLAG-tagged THEMIS2 (human) (UniProt Q5TEJ8); assay: cross-linking + co-IP; NKL-Ly49H cells expressing THEMIS2-FLAG stimulated with anti-Ly49H mAb for 2 or 5 min; cytosolic proteins treated with DTSSP; anti-FLAG M2 affinity gel, eluted with 3x FLAG peptides; immunoblot with anti-DAP12 or anti-ZAP70

Substance | binding [1] | binding [2]
DAP12 (from UniProt O43914 22-113) | no binding (condition: without DTSSP cross-linking) | binds weakly
ZAP70 (from UniProt P43403 1-619) | no binding (condition: without DTSSP cross-linking) | binds weakly
